In PMC2682205, “Cdc7p-Dbf4p Regulates Mitotic Exit by Inhibiting Polo Kinase” (PLoS Genetics, 2009):
Results are given in words; binding and its absence hold for the method and conditions named. For some assays here: Binding can be weak; no strength is given. Tags and fused reporters may be left off the sequences shown.

How the values were obtained:
[1] = biological target: T1, Gal4 DNA binding domain (GBD) fusion to Dbf4p_(67–227) (budding yeast (S. cerevisiae)) (UniProt P32325); assay: two-hybrid; GBD-DBF4 baits and GAD-CDC5 preys co-transformed, 10-fold serial dilutions spotted on SCM–Trp–Leu–His with 2 mM 3AT, 30°C, 2 to 3 days (Figure 1A, C)
T1 sequence: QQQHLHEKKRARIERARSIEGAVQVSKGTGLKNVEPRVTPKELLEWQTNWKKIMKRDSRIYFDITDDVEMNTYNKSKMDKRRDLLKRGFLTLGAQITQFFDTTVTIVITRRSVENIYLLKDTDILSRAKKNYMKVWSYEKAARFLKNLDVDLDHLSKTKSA

[2] = biological target: T2, GBD fusion to Dbf4p residues 67–109 (budding yeast (S. cerevisiae)) (UniProt P32325); assay: as above
T2 sequence: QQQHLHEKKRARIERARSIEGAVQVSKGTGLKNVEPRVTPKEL

[3] = biological target: T3, GBD fusion to the Dbf4p BRCT-like region alone (residues 110–227) (budding yeast (S. cerevisiae)) (UniProt P32325); assay: as above
T3 sequence: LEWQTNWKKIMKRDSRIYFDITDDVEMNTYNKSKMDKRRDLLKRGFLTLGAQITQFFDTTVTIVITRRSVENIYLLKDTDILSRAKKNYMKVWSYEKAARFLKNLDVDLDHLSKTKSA

[4] = biological target: T1, Gal4 DNA binding domain (GBD) fusion to Dbf4p_(67–227) (budding yeast (S. cerevisiae)); assay: two-hybrid; screen of a S. cerevisiae two-hybrid library with pCG60 (GBD-Dbf4p 67-227) in PJ69-4a; medium without Trp, Leu, His with 2 mM 3-aminotriazole, 30°C; HIS3 and ADE2 reporters, confirmed by retransformation
[5] = biological target: T4, GBD fusion to full length Dbf4p (budding yeast (S. cerevisiae)) (UniProt P32325); assay: two-hybrid; GBD-DBF4 baits (full-length context) and GAD-CDC5 prey, 10-fold serial dilutions spotted on SCM–Trp–Leu–His with 0.5 mM 3AT, 30°C, 2 to 3 days (Figure 1B)
T4 sequence: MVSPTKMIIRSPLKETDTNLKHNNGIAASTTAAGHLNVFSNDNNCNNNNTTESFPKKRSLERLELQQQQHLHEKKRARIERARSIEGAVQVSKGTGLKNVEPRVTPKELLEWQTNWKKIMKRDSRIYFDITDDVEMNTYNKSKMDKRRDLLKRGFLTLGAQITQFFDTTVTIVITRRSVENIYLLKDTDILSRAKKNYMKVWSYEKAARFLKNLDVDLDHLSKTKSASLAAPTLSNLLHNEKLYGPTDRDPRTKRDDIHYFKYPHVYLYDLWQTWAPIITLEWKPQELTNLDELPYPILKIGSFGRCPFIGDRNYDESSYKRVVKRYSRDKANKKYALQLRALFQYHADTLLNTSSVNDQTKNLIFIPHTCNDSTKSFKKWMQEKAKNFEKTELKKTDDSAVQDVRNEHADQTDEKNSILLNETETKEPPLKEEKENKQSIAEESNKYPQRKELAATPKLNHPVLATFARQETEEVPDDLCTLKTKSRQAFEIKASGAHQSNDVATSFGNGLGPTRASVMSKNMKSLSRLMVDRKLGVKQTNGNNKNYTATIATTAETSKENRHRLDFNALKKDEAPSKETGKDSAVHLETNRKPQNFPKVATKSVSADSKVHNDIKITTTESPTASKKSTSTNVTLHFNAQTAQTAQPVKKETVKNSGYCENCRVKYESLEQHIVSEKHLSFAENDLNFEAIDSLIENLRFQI

GAL4 activation domain fusion to the polo-box domain (PBD) of Cdc5p (S. cerevisiae) (domain or fragment)
binding [1]: binds
binding [2]: binds
binding [3]: no binding
binding [4]: binds
binding [5]: binds
